# According to the supplement of paper PMC8728848:
# This is one part of the list.
# B1: RobpsCRA (Robinia pseudoacacia) (protein)
# chain: IKGGYWYSGSGLAVSDINPSHFTHLFCAFADLDPNTNKLTISSSNAAAFSTFTQTVRAKNPSVKTLLSIGGGGGRALAAVFANMASQASRRKSFIDSSIQLARRNNFHGLDLDWEYPSSDIDKTNFASLIREWRAAVATESSTSGTPALLLSAAVGGSDQITPLKYYPGEAIANNLDWVNVMTYDLYTSDSYPTLTQPPAPLFYPRGIFSADEGITKWIQSGVPESKLALGLPFYGFKWRLSDPNNHGLFAPATQGLGAVKYKDIVNTGGQVEFDSTYVTNYCFKGTDWYGYDDTQSISAKVAYAKQRGLFGYFAWHIEQDSNWALS
# Key:
# Test in all cases: glycan array binding signal (z-score within array); higher = stronger binding
# Settings in all cases: glycan notation: IUPAC condensed, linker removed
# [1] = target: Fuc(a1-2)Gal(b1-4)[Fuc(a1-3)]GlcNAc(b1-2)Man(a1-3)[Fuc(a1-2)Gal(b1-4)[Fuc(a1-3)]GlcNAc(b1-2)Man(a1-6)]Man(b1-4)GlcNAc(b1-4)[Fuc(a1-6)]GlcNAc
# Method in brief: (§1)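 The binding signal is a Z-score computed within each array and averaged over linkers. Arrays of the same protein sequence at different concentrations or buffers were also averaged together. Data originate from 3228 arrays in the Consortium for Functional Glycomics database, kept only where the protein sequence was available.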
# [2] = target: Fuc(a1-2)Gal(b1-4)[Fuc(a1-3)]GlcNAc(b1-2)[Fuc(a1-2)Gal(b1-4)[Fuc(a1-3)]GlcNAc(b1-4)]Man(a1-3)[Fuc(a1-2)Gal(b1-4)[Fuc(a1-3)]GlcNAc(b1-2)Man(a1-6)]Man(b1-4)GlcNAc(b1-4)GlcNAc
# Method in brief: as §1
# [3] = target: Fuc(a1-2)Gal(b1-4)[Fuc(a1-3)]GlcNAc(b1-3)Gal(b1-4)[Fuc(a1-3)]GlcNAc
# Method in brief: as §1
# [4] = target: Fuc(a1-2)Gal(b1-4)[Fuc(a1-3)]GlcNAc(b1-3)Gal(b1-4)[Fuc(a1-3)]GlcNAc(b1-3)Gal(b1-4)[Fuc(a1-3)]GlcNAc
# Method in brief: as §1
# [5] = target: Fuc(a1-2)Gal(b1-4)[Fuc(a1-3)]GlcNAc(b1-3)GalNAc
# Method in brief: as §1
# [6] = target: Fuc(a1-2)Gal(b1-4)[Fuc(a1-3)]GlcNAc(b1-3)[Neu5Ac(a2-6)Gal(b1-4)GlcNAc(b1-6)]Gal(b1-4)Glc
# Method in brief: as §1
# [7] = target: Fuc(a1-2)Gal3S(b1-4)GlcNAc
# Method in brief: as §1
# [8] = target: Fuc(a1-2)Gal6S(b1-3)GlcNAc
# Method in brief: as §1
# [9] = target: Fuc(a1-2)Gal6S(b1-3)GlcNAc6S
# Method in brief: as §1
# Fuc(a1-2)Gal6S(b1-4)Glc = target: Fuc(a1-2)Gal6S(b1-4)Glc
# Method in brief: as §1
# [10] = target: Fuc(a1-2)Gal6S(b1-4)Glc6S
# Method in brief: as §1
# Fuc(a1-2)[Gal(a1-3)]Gal = target: Fuc(a1-2)[Gal(a1-3)]Gal
# Method in brief: as §1
# [11] = target: Fuc(a1-2)[Gal(a1-3)]Gal(b1-3)GalNAc
# Method in brief: as §1
# [12] = target: Fuc(a1-2)[Gal(a1-3)]Gal(b1-3)GalNAc(b1-3)Gal(a1-4)Gal(b1-4)Glc
# Method in brief: as §1
# [13] = target: Fuc(a1-2)[Gal(a1-3)]Gal(b1-3)GlcNAc
# Method in brief: as §1
# [14] = target: Fuc(a1-2)[Gal(a1-3)]Gal(b1-3)GlcNAc(b1-2)Man(a1-3)[Fuc(a1-2)[Gal(a1-3)]Gal(b1-3)GlcNAc(b1-2)Man(a1-6)]Man(b1-4)GlcNAc(b1-4)GlcNAc
# Method in brief: as §1
# [15] = target: Fuc(a1-2)[Gal(a1-3)]Gal(b1-3)GlcNAc(b1-2)Man(a1-3)[Fuc(a1-2)[Gal(a1-3)]Gal(b1-3)GlcNAc(b1-2)Man(a1-6)]Man(b1-4)GlcNAc(b1-4)[Fuc(a1-6)]GlcNAc
# Method in brief: as §1
# [16] = target: Fuc(a1-2)[Gal(a1-3)]Gal(b1-3)GlcNAc(b1-3)GalNAc
# Method in brief: as §1
# [17] = target: Fuc(a1-2)[Gal(a1-3)]Gal(b1-3)GlcNAc(b1-6)GalNAc
# Method in brief: as §1
# [18] = target: Fuc(a1-2)[Gal(a1-3)]Gal(b1-4)Glc
# Method in brief: as §1
# [19] = target: Fuc(a1-2)[Gal(a1-3)]Gal(b1-4)GlcNAc
# Method in brief: as §1
# [20] = target: Fuc(a1-2)[Gal(a1-3)]Gal(b1-4)GlcNAc(b1-2)Man
# Method in brief: as §1
# [21] = target: Fuc(a1-2)[Gal(a1-3)]Gal(b1-4)GlcNAc(b1-2)Man(a1-3)[Fuc(a1-2)[Gal(a1-3)]Gal(b1-4)GlcNAc(b1-2)Man(a1-6)]Man(b1-4)GlcNAc(b1-4)GlcNAc
# Method in brief: as §1
# [22] = target: Fuc(a1-2)[Gal(a1-3)]Gal(b1-4)GlcNAc(b1-2)Man(a1-3)[Fuc(a1-2)[Gal(a1-3)]Gal(b1-4)GlcNAc(b1-2)Man(a1-6)]Man(b1-4)GlcNAc(b1-4)[Fuc(a1-6)]GlcNAc
# Method in brief: as §1
# [23] = target: Fuc(a1-2)[Gal(a1-3)]Gal(b1-4)GlcNAc(b1-3)GalNAc
# Method in brief: as §1
# [24] = target: Fuc(a1-2)[Gal(a1-3)]Gal(b1-4)GlcNAc(b1-3)[Fuc(a1-2)[Gal(a1-3)]Gal(b1-4)GlcNAc(b1-6)]GalNAc
# Method in brief: as §1
# [25] = target: Fuc(a1-2)[Gal(a1-3)]Gal(b1-4)GlcNAc(b1-6)GalNAc
# Method in brief: as §1
# [26] = target: Fuc(a1-2)[Gal(a1-3)]Gal(b1-4)[Fuc(a1-3)]Glc
# Method in brief: as §1
# [27] = target: Fuc(a1-2)[Gal(a1-3)]Gal(b1-4)[Fuc(a1-3)]GlcNAc
# Method in brief: as §1
# [28] = target: Fuc(a1-2)[Gal(a1-3)]Gal(b1-4)[Fuc(a1-3)]GlcNAc(b1-3)GalNAc
# Method in brief: as §1
# [29] = target: Fuc(a1-2)[Gal(a1-4)]Gal(b1-4)GlcNAc
# Method in brief: as §1
# [30] = target: Fuc(a1-2)[GalNAc(a1-3)]Gal
# Method in brief: as §1
# [31] = target: Fuc(a1-2)[GalNAc(a1-3)]Gal(b1-3)GalNAc(a1-3)[Fuc(a1-2)]Gal(b1-4)GlcNAc
# Method in brief: as §1
# [32] = target: Fuc(a1-2)[GalNAc(a1-3)]Gal(b1-3)GalNAc(b1-3)Gal(a1-4)Gal(b1-4)Glc
# Method in brief: as §1
# [33] = target: Fuc(a1-2)[GalNAc(a1-3)]Gal(b1-3)GlcNAc
# Method in brief: as §1
# [34] = target: Fuc(a1-2)[GalNAc(a1-3)]Gal(b1-3)GlcNAc(b1-2)Man(a1-3)[Fuc(a1-2)[GalNAc(a1-3)]Gal(b1-3)GlcNAc(b1-2)Man(a1-6)]Man(b1-4)GlcNAc(b1-4)GlcNAc
# Method in brief: as §1
# [35] = target: Fuc(a1-2)[GalNAc(a1-3)]Gal(b1-3)GlcNAc(b1-2)Man(a1-3)[Fuc(a1-2)[GalNAc(a1-3)]Gal(b1-3)GlcNAc(b1-2)Man(a1-6)]Man(b1-4)GlcNAc(b1-4)[Fuc(a1-6)]GlcNAc
# Method in brief: as §1
# [36] = target: Fuc(a1-2)[GalNAc(a1-3)]Gal(b1-3)GlcNAc(b1-3)GalNAc
# Method in brief: as §1
binder,measurement,setting,value
B1,glycan array binding signal (z-score),[1],-0.099
same,glycan array binding signal (z-score),[2],0.212
same,glycan array binding signal (z-score),[3],-0.131
same,glycan array binding signal (z-score),[4],-0.49
same,glycan array binding signal (z-score),[5],0.708
same,glycan array binding signal (z-score),[6],-0.512
same,glycan array binding signal (z-score),[7],-0.007
same,glycan array binding signal (z-score),[8],-0.314
same,glycan array binding signal (z-score),[9],0.966
same,glycan array binding signal (z-score),Fuc(a1-2)Gal6S(b1-4)Glc,-0.627
same,glycan array binding signal (z-score),[10],-0.44
same,glycan array binding signal (z-score),Fuc(a1-2)[Gal(a1-3)]Gal,0.41
same,glycan array binding signal (z-score),[11],-0.447
same,glycan array binding signal (z-score),[12],-0.435
same,glycan array binding signal (z-score),[13],-0.443
same,glycan array binding signal (z-score),[14],-0.684
same,glycan array binding signal (z-score),[15],-0.838
same,glycan array binding signal (z-score),[16],-0.064
same,glycan array binding signal (z-score),[17],-0.743
same,glycan array binding signal (z-score),[18],-0.14
same,glycan array binding signal (z-score),[19],-0.581
same,glycan array binding signal (z-score),[20],-0.319
same,glycan array binding signal (z-score),[21],0.466
same,glycan array binding signal (z-score),[22],0.1
same,glycan array binding signal (z-score),[23],-0.615
same,glycan array binding signal (z-score),[24],-0.452
same,glycan array binding signal (z-score),[25],-0.58
same,glycan array binding signal (z-score),[26],-0.131
same,glycan array binding signal (z-score),[27],-0.598
same,glycan array binding signal (z-score),[28],-0.494
same,glycan array binding signal (z-score),[29],-0.128
same,glycan array binding signal (z-score),[30],-0.195
same,glycan array binding signal (z-score),[31],-0.198
same,glycan array binding signal (z-score),[32],0.265
same,glycan array binding signal (z-score),[33],1.23
same,glycan array binding signal (z-score),[34],-0.598
same,glycan array binding signal (z-score),[35],-0.163
same,glycan array binding signal (z-score),[36],-0.124

# Exported with bars between the fields: entries from further up.
binder | measurement | setting | value
B1 | glycan array binding signal (z-score) | [23] | -0.615
same | glycan array binding signal (z-score) | [24] | -0.452
